Where “and” joins values, the source holds several entries; their conditions need not be identical. Identical values can stand only once. The list shows a part of the results. Further columns of the screen follow, without active or inactive calls. Most of these compounds were active or inconclusive in the main read-out, so they are no random draw. Words in brackets tell the shape of the fitted curve; partial curves, single points and poor fits give uncertain potencies.
Experiment: qHTS Assay for Identifying the Cell-Membrane Permeable IMPase Inhibitors
Details: CHO-M1 cells, IP1 accumulation, HTRF TR-FRET ratio; measured here: donor channel 620 nm AC50

Row | Compound | AC50
1 | Oc1ccc(C2Nc3cccc4cccc(c34)N2)c(O)c1 | 15.8 µM [falling, single point]
2 | CCN(CC(=O)NCc1cccs1)c1nnnn1-c1ccccc1 | 3.98 µM [falling, single point]
3 | COC(=O)c1ccc(COC(=O)C(CCS(C)(=O)=O)N2C(=O)c3ccccc3C2=O)cc1 (stereo unspecified) | 0.02 µM [falling, full curve, poor fit]
4 | O=C(c1ccco1)c1nnn(Cc2ccccc2)c1-c1ccccc1 | 1.26 µM [falling, partial curve, poor fit]
5 | Cc1c(C(=O)Nc2ccc(Cl)cn2)oc2ccccc12 | 5.01 µM [falling, single point]
6 | NC(=O)CC(NC(=O)OCc1ccccc1)C(=O)O (stereo unspecified) | 0.126 µM [falling, full curve, poor fit]
7 | COc1ccc(CNC(=O)C(=O)NCC2CCCO2)cc1 (stereo unspecified) | 0.01 µM [rising, full curve, poor fit]
8 | CC(C)(C)c1ccc(/C=C/C(=O)Nc2ccc(S(N)(=O)=O)cc2)cc1 | 35.5 µM [falling, single point]
9 | Cc1cc(C)c(NC(=O)COc2nc3ccccc3nc2C)c(C)c1 | 31.6 µM [rising, single point]
10 | COC(=O)c1[nH]c2cc(OC)c(OC)cc2c1NC(=O)Oc1ccccc1 | 20 µM [falling, partial curve, poor fit]
11 | N#CC1=C(N)N(c2ccccc2)C(c2cccc([N+](=O)[O-])c2)C1(C#N)C#N (stereo unspecified) | 0.0501 µM [rising, full curve, poor fit]
12 | CC(C)NS(=O)(=O)c1ccc(OCC(=O)Nc2ccc3c(c2)OCCO3)cc1 | 35.5 µM [falling, single point]
13 | Clc1ccc(-c2cc(COc3ccc4ccccc4c3)no2)cc1 | 25.1 µM [rising, single point]
14 | CCCn1c(CC)nc([N+](=O)[O-])c1Sc1ccc(C)cc1 | 3.98 µM [falling, partial curve, poor fit]
15 | O=C(C1CCCN(S(=O)(=O)c2ccc(Br)s2)C1)N1CCN(c2ccccc2)CC1 (stereo unspecified) | 0.00501 µM [falling, full curve, poor fit]
16 | COc1ccc(-c2n[nH]c(C)c2-c2ccc(OC)c(OC)c2)c(O)c1 | 2.51 µM [rising, single point]
17 | COc1ccc(CCNC(=O)CSc2nc(-c3ccc(F)cc3)cc(C(F)(F)F)n2)cc1OC | 0.00708 µM [rising, full curve, poor fit]
18 | CNC(=O)CC(=O)Nc1ccccc1C(=O)O | 0.158 µM [falling, full curve, poor fit]
19 | COc1ccc(/C(O)=C2/C(=O)C(=O)N(CCN(C)C)C2c2ccc(OC)c(OC)c2)c(C)c1 (stereo unspecified) | 25.1 µM [falling, single point]
20 | Cc1c(C(=O)OC2CCCC2)[nH]c2c1C(=O)CC(c1ccco1)C2 (stereo unspecified) | 0.00447 µM [falling, full curve, poor fit]
21 | Cc1cc(C(C)(C)C)c(O)c(C)c1CC1=NCCN1 | 5.01 µM [rising, single point]

Row | Compound | AC50
22 | Cc1ccc(Cn2c(CN3CCOCC3)nc3c2c(=O)[nH]c(=O)n3C)cc1 | 31.6 µM [rising, single point]
23 | CCOc1cccc(Oc2ccc(C(F)(F)F)cn2)c1 | 3.98 µM [rising, single point]
24 | O=C(O)CCSc1ccc2ccccc2n1 | 20 µM [rising, partial curve] and 10 µM [rising, partial curve]
25 | Cc1ccc(-c2cc(C(F)(F)F)c(C#N)c(SCC(=O)Nc3ccccc3F)n2)cc1 | 0.794 µM [falling, full curve, poor fit]
26 | O=C(CSc1nc2ccccc2nc1SCC(=O)N1CCCCC1)N1CCCCC1 | 25.1 µM [rising, single point]
27 | O=C(NCC1CCCO1)c1nc2c(nnn2Cc2ccccc2Cl)c(=O)[nH]1 (stereo unspecified) | 5.01 µM [falling, single point]
28 | O=C(c1ccccc1)c1ccc(CN2C(=O)c3ccccc3C2=O)o1 | 25.1 µM [falling, single point]
29 | Cc1ccc2cc(CCNC(=O)CC(C)(C)C)c(=O)[nH]c2c1C | 22.4 µM [rising, partial curve]
30 | COc1ccc(NC(=O)CSC2=NC(=O)CC(C)=N2)cc1 | 10 µM [falling, partial curve]
31 | COc1ccc(NC(=O)C(C/C=C(/C)Cl)C(C)=O)cc1 (stereo unspecified) | 0.794 µM [falling, full curve]
32 | Cc1onc(-c2ccccc2Cl)c1C(=O)Nc1nnc(-c2ccc(F)cc2)s1 | 14.1 µM [rising, single point]
33 | COCCNC(=O)c1onc(CSc2ccc(Cl)cc2)c1C(=O)O | 0.631 µM [rising, full curve, poor fit]
34 | O=c1c2c3c(sc2nnn1Cc1ccc(Br)cc1)CCCC3 | 3.16 µM [falling, single point]
35 | O=C(NCC1c2ccccc2CCN1C(=O)CN1CCOCC1)C1CCCCC1 (stereo unspecified) | 0.02 µM [rising, full curve, poor fit]
36 | O=C(CNC(=O)c1ccccc1F)N/N=C/c1cn[nH]c1-c1ccccc1 | 4.47 µM [rising, full curve, poor fit]
37 | COc1ccccc1-c1nnc(SCC(=O)Nc2c(Cl)cccc2Cl)o1 | 25.1 µM [falling, partial curve, poor fit]
38 | COc1cc(/C=N/NC(=O)c2ccc(O)cc2)ccc1Oc1ccc([N+](=O)[O-])cn1 | 35.5 µM [falling, single point]
39 | O=S(=O)(c1ccc2c(c1)OCCO2)N1CCC(n2nnc3cc(F)ccc32)CC1 | 0.00708 µM [falling, full curve, poor fit]
40 | C/C(=C\C(=O)Nc1nccs1)c1ccccc1 | 5.01 µM [rising, single point]
41 | COc1cc2cc(CN(Cc3nnnn3Cc3ccco3)C3CCCCC3)c(=O)[nH]c2cc1OC | 35.5 µM [rising, single point]

— PubChem BioAssay AID901 (National Center for Advancing Translational Sciences (NCATS), 2007)
